From publication PMC9344665
No constants are given. Whether binding was seen depends on the method and setting. Some results given as binding are weak or reduced against the parent protein; the word gives no strength. Where a sequence is shown, tags or fusion partners need not be part of it.

Key:
Assay in all cases: co-purification of coexpressed proteins (Ni-NTA, heparin, size-exclusion chromatography); His6-FARSA and untagged FARSB coexpressed in E. coli Rosetta (DE3); lysate on Ni-NTA (20 mM Tris-HCl pH 8.5, 500 mM NaCl), His6-tag removed with HRV3C, HiTrap Heparin HP with a NaCl gradient, then SEC in 20 mM HEPES-NaOH pH 7.5, 150 mM NaCl; SDS-PAGE of fractions
[1] = target: T1, FARSA F256L variant (human) (UniProt Q9Y285)
T1 sequence: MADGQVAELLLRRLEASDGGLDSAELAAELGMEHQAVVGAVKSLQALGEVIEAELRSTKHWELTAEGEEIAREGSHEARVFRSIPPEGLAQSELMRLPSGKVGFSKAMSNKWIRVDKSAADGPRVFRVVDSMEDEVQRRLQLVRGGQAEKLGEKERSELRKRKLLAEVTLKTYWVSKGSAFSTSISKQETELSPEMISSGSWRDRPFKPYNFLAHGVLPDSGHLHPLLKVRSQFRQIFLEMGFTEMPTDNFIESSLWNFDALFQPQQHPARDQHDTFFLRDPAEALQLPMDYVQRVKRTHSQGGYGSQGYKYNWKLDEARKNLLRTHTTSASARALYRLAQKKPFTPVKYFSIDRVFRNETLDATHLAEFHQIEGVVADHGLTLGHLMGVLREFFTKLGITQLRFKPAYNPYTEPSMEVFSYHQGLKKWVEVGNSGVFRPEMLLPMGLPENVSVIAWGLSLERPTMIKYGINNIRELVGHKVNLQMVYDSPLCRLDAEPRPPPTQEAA

[2] = target: T2, FARSA P347L variant (human) (UniProt Q9Y285)
T2 sequence: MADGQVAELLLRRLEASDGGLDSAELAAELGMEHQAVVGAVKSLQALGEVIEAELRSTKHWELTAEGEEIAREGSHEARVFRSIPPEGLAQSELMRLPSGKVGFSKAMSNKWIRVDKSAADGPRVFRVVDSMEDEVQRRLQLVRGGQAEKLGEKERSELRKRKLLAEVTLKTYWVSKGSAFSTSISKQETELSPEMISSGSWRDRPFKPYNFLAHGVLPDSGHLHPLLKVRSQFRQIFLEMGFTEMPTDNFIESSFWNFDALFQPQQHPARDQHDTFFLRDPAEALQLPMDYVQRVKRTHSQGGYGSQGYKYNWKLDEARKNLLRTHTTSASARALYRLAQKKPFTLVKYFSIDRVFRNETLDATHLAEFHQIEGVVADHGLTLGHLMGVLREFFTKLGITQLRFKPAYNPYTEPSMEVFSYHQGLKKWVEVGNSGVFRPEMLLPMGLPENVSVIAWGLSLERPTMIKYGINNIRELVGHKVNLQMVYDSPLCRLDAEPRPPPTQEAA

[3] = target: T3, FARSA R295W variant (human) (UniProt Q9Y285)
T3 sequence: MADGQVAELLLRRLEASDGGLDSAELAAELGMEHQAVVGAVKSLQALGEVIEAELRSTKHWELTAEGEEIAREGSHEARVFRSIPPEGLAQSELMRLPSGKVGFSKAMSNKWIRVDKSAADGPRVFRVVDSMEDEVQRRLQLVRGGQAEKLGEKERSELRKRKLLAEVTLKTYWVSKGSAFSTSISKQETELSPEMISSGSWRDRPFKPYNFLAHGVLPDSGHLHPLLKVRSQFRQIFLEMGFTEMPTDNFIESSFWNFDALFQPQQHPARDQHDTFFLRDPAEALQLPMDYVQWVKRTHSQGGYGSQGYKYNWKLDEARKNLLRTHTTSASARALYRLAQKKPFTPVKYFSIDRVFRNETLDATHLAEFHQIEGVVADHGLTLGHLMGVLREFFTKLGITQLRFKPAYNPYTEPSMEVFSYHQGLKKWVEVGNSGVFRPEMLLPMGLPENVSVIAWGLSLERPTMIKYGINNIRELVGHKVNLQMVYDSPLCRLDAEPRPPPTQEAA

[4] = target: T4, FARSA R404C variant (human) (UniProt Q9Y285)
T4 sequence: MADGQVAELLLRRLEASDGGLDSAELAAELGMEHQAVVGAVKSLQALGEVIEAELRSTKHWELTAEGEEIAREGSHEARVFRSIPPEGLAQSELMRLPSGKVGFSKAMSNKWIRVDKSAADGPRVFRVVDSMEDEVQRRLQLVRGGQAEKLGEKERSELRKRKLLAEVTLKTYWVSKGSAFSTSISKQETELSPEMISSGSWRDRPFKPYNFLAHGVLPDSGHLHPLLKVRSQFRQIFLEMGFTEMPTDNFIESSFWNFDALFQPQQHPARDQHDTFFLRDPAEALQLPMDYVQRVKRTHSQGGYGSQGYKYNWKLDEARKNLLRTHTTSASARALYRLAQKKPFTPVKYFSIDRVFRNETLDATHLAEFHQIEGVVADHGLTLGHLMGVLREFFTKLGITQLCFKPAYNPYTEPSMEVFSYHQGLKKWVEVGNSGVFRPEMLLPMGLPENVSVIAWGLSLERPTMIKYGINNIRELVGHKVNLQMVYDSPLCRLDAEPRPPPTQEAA

- binding [1]: binds
- binding [2]: no binding
- binding [3]: binds
- binding [4]: no binding
B1: FARSB (β subunit of cytosolic phenylalanyl-tRNA synthetase FARS1), no affinity tag (enzyme, UniProt Q9NSD9 1-584)
chain: MPTVSVKRDLLFQALGRTYTDEEFDELCFEFGLELDEITSEKEIISKEQGNVKAAGASDVVLYKIDVPANRYDLLCLEGLVRGLQVFKERIKAPVYKRVMPDGKIQKLIITEETAKIRPFAVAAVLRNIKFTKDRYDSFIELQEKLHQNICRKRALVAIGTHDLDTLSGPFTYTAKRPSDIKFKPLNKTKEYTACELMNIYKTDNHLKHYLHIIENKPLYPVIYDSNGVVLSMPPIINGDHSRITVNTRNIFIECTGTDFTKAKIVLDIIVTMFSEYCENQFTVEAAEVVFPNGKSHTFPELAYRKEMVRADLINKKVGIRETPENLAKLLTRMYLKSEVIGDGNQIEIEIPPTRADIIHACDIVEDAAIAYGYNNIQMTLPKTYTIANQFPLNKLTELLRHDMAAAGFTEALTFALCSQEDIADKLGVDISATKAVHISNPKTAEFQVARTTLLPGLLKTIAANRKMPLPLKLFEISDIVIKDSNTDVGAKNYRHLCAVYYNKNPGFEIIHGLLDRIMQLLDVPPGEDKGGYVIKASEGPAFFPGRCAEIFARGQSVGKLGVLHPDVITKFELTMPCSSLEIN
